Entries after “also recorded” stand apart in the source; their conditions may differ.
Biological target: PDZ1/2 domain (Homo sapiens, UniProt P78352)
Conditions: His beads, eluate by SDS-PAGE

Amino acid sequences for entries named in this document (tags omitted). Residues count along the entry.
UniProt P78352, 65-246: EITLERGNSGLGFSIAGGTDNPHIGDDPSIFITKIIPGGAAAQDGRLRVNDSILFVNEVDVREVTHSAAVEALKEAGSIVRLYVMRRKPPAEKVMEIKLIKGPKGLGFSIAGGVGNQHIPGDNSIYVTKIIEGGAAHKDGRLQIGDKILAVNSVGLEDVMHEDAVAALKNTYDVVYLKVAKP

For CC[C@H](C)[C@H](NC(=O)[C@H](CCC(=O)O)NC(=O)[C@@H](NC(=O)[C@H](CC(=O)O)NC(=O)[C@H](CC(C)C)NC(=O)[C@H](CC(C)C)NC(=O)[C@H](CCCCN)NC(=O)[C@H](CCC(=O)O)NC(=O)[C@H](Cc1ccc(O)cc1)NC(=O)[C@H](CCCNC(=N)N)NC(=O)[C@H](CCCNC(=N)N)NC(=O)[C@H](CCCNC(=N)N)NC(=O)[C@H](CCC(N)=O)NC(=O)[C@H](CCCNC(=N)N)NC(=O)[C@H](CCCNC(=N)N)NC(=O)[C@H](CCCCN)NC(=O)[C@H](CCCCN)NC(=O)[C@H](CCCNC(=N)N)NC(=O)CNC(=O)[C@@H](N)Cc1ccc(O)cc1)[C@@H](C)O)C(=O)O [P5], the “binding to PDZ1/2 domain (pull-down)” value was “can bind to PDZ1/2 domain; also recorded: capable of binding to PDZ1/2 domain”.

Reference: patent US11541098B2, “Peptide composition for treating excitatory neurotoxicity related injuries” (Biocells (Beijing) Biotech Co., Ltd., priority 2017, dated 2023)
